Sequences and labels used below:
B1: tRNA (parent)
chain: GUUCCGUUGGCGUAAUGGUAACGCGUCUCCCUCCUAAGGAGAAGACUGCGGGUUCGAGUCCCGUACGGAACG

This sample is rich in variants without activity.

In the data set the parent is B1. In words: yeast fitness relative to wild type (ratio to wild type); higher = fitter; tRNA-Arg(CCU), competitive growth, 37 C, YPD. Put shortly: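 Variants of the tRNA-Arg(CCU) gene were chemically synthesised with a 3% per-site mutation rate across 69 sites and placed at the native genomic locus in Saccharomyces cerevisiae. Six parallel replicates of the pooled strains were competed in YPD at 37°C for 24 hours, and gene amplicons from the start and end populations were read by 100-nucleotide paired-end sequencing. Darwinian fitness relative to wild type was derived from changes in genotype frequencies. Genotypes required ≥ 100 starting reads, and estimates < 0.5 were set to 0.5.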
In the case of G17A G39A C62U, the yeast fitness was not above 0.5. To U3A G9C C27G C34A belongs not above 0.5; to C11G C33U G56C G63A, not above 0.5. In the case of C4U C24U A43G C60U C61G, the yeast fitness was not above 0.5. On to C29G U47G A70U, for which the yeast fitness was not above 0.5. Regarding G51C U54A A69U, the yeast fitness is not above 0.5. Regarding U13A A42U C66U, the yeast fitness was 0.704. Turning to C4U G44C C60U C62G, the yeast fitness was not above 0.5. As for C24G U32C A37C, the yeast fitness is not above 0.5. Consider C4U C29A G52C C55G U59G, for which the yeast fitness turned out to be 0.656. As for C31G G38A G63C G67C, the yeast fitness is not above 0.5. As for U2A C4G G18C, the yeast fitness was not above 0.5. Regarding G18C A42C A43C C66G, the yeast fitness was not above 0.5.

A15U C49G A70G: the yeast fitness came to 0.576.

In the case of U8C U26A A43U A70U, the yeast fitness was 0.675. With G44A U54C G56C, the yeast fitness is not above 0.5. In the case of C5G G23A C29U A70C it was not above 0.5; in that of C4U A45U C46U U53C, not above 0.5; in that of C22G A40U U54A C66U, not above 0.5. For the variant G12A A20G U28A C55A G56A, the yeast fitness worked out at 0.537. Turning to C4G C11G U13A U59G C61G, the yeast fitness is not above 0.5. Regarding U13A G17A G50C, the yeast fitness was not above 0.5. Consider C4A C5U C24G A45U C66U, for which the yeast fitness was not above 0.5. As to C5A C11G A14U A20U C49U, the yeast fitness is not above 0.5.

With C22A C29U G67U, the yeast fitness was not above 0.5.

Regarding U7A C22A A57U, the yeast fitness is not above 0.5.

As for A15U G18A C33G A42C, the yeast fitness is not above 0.5. Take C27A G52C C55A C62G: the yeast fitness was not above 0.5. C11U G17C C30A C33G C60A: the yeast fitness was not above 0.5. In the case of A14C A40U C55G C61U C66U, the yeast fitness is not above 0.5. Turning to C22U A43C C66G A69U, the yeast fitness was not above 0.5. Take G6C C11G A15C G25C U26A C27G C30G G38C: the yeast fitness is not above 0.5. Turning to C27G A36U G39C C61U, the yeast fitness was not above 0.5. Consider G25A C49U C55U, for which the yeast fitness is 0.683. With C4U C30A G56A U59A, the yeast fitness is not above 0.5.

Regarding C4U C11U G23C A43C C66G, the yeast fitness was not above 0.5. Take C24U G39A G44C C61A G63C: the yeast fitness is not above 0.5.

On to C27G C33U A43U G44A, for which the yeast fitness is not above 0.5.

Regarding G9C U59A, the yeast fitness came out at 0.737. In the case of U2A G25C U26G C60U C62G U64A A69U, the yeast fitness was not above 0.5. In the case of C11U A43U C49A C60U it was not above 0.5; in that of U19A C30G A43C A69C, not above 0.5. As to C4U A14C A15U U64G C66A, the yeast fitness was not above 0.5. In the case of U3A C4U C33U C61A, the yeast fitness is not above 0.5. In the case of C4U U13C A14G it was 0.587. In the case of C24G C29A C30U G50A C62U it was not above 0.5; in that of U2C G9C C11U A36C A57U A69C, not above 0.5. With C11A G56A C66G, the yeast fitness is 0.533.

In the case of C4A G12C U19C C24G A43U, the yeast fitness was not above 0.5. For the variant U3C C4A A65C, the yeast fitness came to 0.62. With C5U U54A A57U C60G C61G, the yeast fitness was not above 0.5. In the case of C5G G38A, the yeast fitness worked out at 0.729.

Turning to C4U G9A C22G A42U U64A, the yeast fitness was not above 0.5. Regarding U8A C22U A69C A70C, the yeast fitness stood at 0.595. In the case of C4U G23A G56C G68A, the yeast fitness was not above 0.5. Turning to A20U G39C, the yeast fitness amounted to 0.81. In the case of U3C C22G C55U C61A, the yeast fitness is not above 0.5.

Turning to U7A C31G C33U A42G G52C G58C, the yeast fitness is not above 0.5. On to C11U A21G C34A A42U, for which the yeast fitness is not above 0.5. For the variant U16C C46G G56A, the yeast fitness is 0.748. To A14C C30G C33U C49U belongs not above 0.5. C5U C24U C61G C66U A69U: the yeast fitness was not above 0.5. In the case of U2G U13A G17C U26A C46G A57G it was not above 0.5; in that of U2A C11G C29U C34U C62A C66U, not above 0.5; in that of U2C C29U U35A A70C, not above 0.5. Regarding U2C A15G U35G A36C A40U A70C, the yeast fitness is not above 0.5. Turning to A14U C31G C49U C55U, the yeast fitness was not above 0.5. In the case of C27A G39C C61G it was not above 0.5; in that of G18C A57G A65U, not above 0.5. Take U28G G41C C66A A70C: the yeast fitness is not above 0.5. As for G10C A36U A40C C60G, the yeast fitness was not above 0.5. In the case of A40U A42G C55G G58A, the yeast fitness is not above 0.5. To U7G U59G belongs 0.705. Consider U26C C31U C33U G67A, for which the yeast fitness is not above 0.5. With A15U A43G U64C, the yeast fitness was not above 0.5.

In the case of C11G C30G U53G C60U, the yeast fitness is not above 0.5.

Regarding C29U A43G G48C C55A, the yeast fitness is not above 0.5. Turning to U8A G18A A20G C30A U32A U35G G67A, the yeast fitness is not above 0.5. For the variant C4A U13G C30U, the yeast fitness is not above 0.5. In the case of G9U C27U C29A C49G it was not above 0.5; in that of A20C C30A C55A, 0.571. As for C22G A69G, the yeast fitness stood at 0.952.

With G6C A14C U16C, the yeast fitness is not above 0.5. In the case of C4U A14G A15G C33A U59C C60U, the yeast fitness was not above 0.5. To G38C A42G G56C belongs not above 0.5; to C34G A37U G39A A57U, not above 0.5; to C11U C24G C33G, 0.541. Regarding U2A U3A U26A G51A A70U, the yeast fitness was not above 0.5. To G18A U28A G68A belongs not above 0.5; to U26A C31A A42G C49U C55G, not above 0.5.

U7A C31U A43G U59A: the yeast fitness is not above 0.5. In the case of G6A G25C C33U G48A it was not above 0.5. As for C4U C5G C46G G52C C62G C66U, the yeast fitness was not above 0.5.

In the case of C5G G23C C33U G39A A43C, the yeast fitness is not above 0.5. To C5G C30U C55U belongs not above 0.5; to A15U C22G C31U G50A, not above 0.5. On to A14U C46A G51C A57U, for which the yeast fitness was not above 0.5.

In the case of U2A C33G A42C A69U, the yeast fitness is not above 0.5.

In the case of U19A C22G C34U A42G A43G G51A A70U, the yeast fitness is not above 0.5. Turning to C30U C46A C62U A69G, the yeast fitness was not above 0.5. Take G6C G44C G68C: the yeast fitness is not above 0.5. With C5U U13A C61U, the yeast fitness worked out at 0.624. As to G41A A42G G58U G63C, the yeast fitness is not above 0.5.

As for C5A A36U, the yeast fitness came out at 0.678.

For G6U A21U C31A G39C C61A, the yeast fitness is not above 0.5. For G10A C55G G56C, the yeast fitness was not above 0.5. In the case of G9A A15U A20G G39C C60U A69C it was not above 0.5.

For C4A U8C U26C C27G C33G A37U G41A A57G C62G, the yeast fitness is not above 0.5. As to U2C A15U A20U C49U, the yeast fitness was not above 0.5. C5G G17C A70G: the yeast fitness is not above 0.5.

As for U3A C5U C29A, the yeast fitness is not above 0.5. On to G25C C34G A57G, for which the yeast fitness was not above 0.5. On to U26G C29A C30G C31G C46U, for which the yeast fitness was not above 0.5.

For C55G A65G C66G A70G, the yeast fitness was not above 0.5. Turning to C11U C29U G48A G63A, the yeast fitness is not above 0.5. In the case of C22A C24A U26C C66U, the yeast fitness was not above 0.5. With A15U G23A C49G G63C, the yeast fitness is not above 0.5. In the case of G12A C33G G38C A57U, the yeast fitness was not above 0.5. Turning to U3G G18A C66A A70U, the yeast fitness is not above 0.5.

For G25C C29U C30U A40C, the yeast fitness was not above 0.5. Take A21U G67C G68A: the yeast fitness was not above 0.5. Take U35G C60A: the yeast fitness is not above 0.5.

As to A36C A43U G56A, the yeast fitness is not above 0.5. In the case of C30U A37G C55G G58C it was not above 0.5; in that of U26C C30G A45U U53A C62U G68C, not above 0.5. With C33U C34A U53G U54A C66A, the yeast fitness is not above 0.5. To A14U A43G C62A belongs not above 0.5; to C4U C24U A37G C66U A70C, not above 0.5; to A14G C31A A43G, 0.679.

Regarding U26C C60A, the yeast fitness was found to be 0.572.

As for G18C U19G A45C G67A, the yeast fitness is not above 0.5. In the case of G12C U19C C49G A69C it was not above 0.5; in that of G25C C29A A70U, not above 0.5. Take G17C A20U G52C: the yeast fitness is not above 0.5. Turning to U2G G10C U59A, the yeast fitness is not above 0.5. Turning to U2C A37U C62A, the yeast fitness is not above 0.5.

Take C5G C22A C30U U47A G67C: the yeast fitness is not above 0.5. With C49U U53A C66A, the yeast fitness was not above 0.5. C22G C34A G67U: the yeast fitness is not above 0.5. Turning to U7A C33A C46U, the yeast fitness is not above 0.5. Turning to C5G U13C A21C A70C, the yeast fitness was not above 0.5. In the case of A20C A21G C46G A65G it was not above 0.5; in that of G25A G56C, 0.711; in that of A15U C22U C31G U53A C55U A57C C60G G67C, not above 0.5. Regarding U2C C24G C29U A69C, the yeast fitness was not above 0.5. With G6C G17C C31G A36G G48C, the yeast fitness is not above 0.5.

With A14C C24U C31U U53C G68C, the yeast fitness was not above 0.5.

On to C22G G52A, for which the yeast fitness is 0.772.

On to U16C C49U A57G, for which the yeast fitness was not above 0.5.

As to C4G C5G U19A C31A U47A, the yeast fitness was not above 0.5.

Regarding C46G G51A G56C A57C, the yeast fitness was not above 0.5. Regarding C29U C33A G38A, the yeast fitness was not above 0.5.

For the variant U2A G38C G44C A69U, the yeast fitness was not above 0.5. Regarding U3C C24G C31A A43U A65C, the yeast fitness was not above 0.5.

As to A14C G25A C29G A43C G48A A69C, the yeast fitness was not above 0.5.

As for U2A G41C G50C A57G, the yeast fitness is not above 0.5. As to C11A G17A G23C U32G C34A, the yeast fitness is not above 0.5. Consider U7A C27U C29A A36U A40C G52C A69C, for which the yeast fitness is not above 0.5.

Take G6C G12A G58C: the yeast fitness was determined as 0.964.

In the case of U26A C49A A65U, the yeast fitness is not above 0.5. For U2A A43C C49U, the yeast fitness stood at 0.602. Take U2G A14U C22G C30G G58A: the yeast fitness was not above 0.5. In the case of G38A A40U G50C it was not above 0.5; in that of G56A G63A, 0.726; in that of C4G C22G A37G, not above 0.5. Consider U19G A43C U53C C55G, for which the yeast fitness is not above 0.5. With A21U G56C G63A U64C G67C A69U, the yeast fitness was not above 0.5.

(Values after the RNAGym collection of RNA variant scans (doi:10.1126/science.aae0568).)
